{
  "sequences": {"note": "The chains behind the UniProt entries cited, without tags or fusion partners. Where a name states a change or a piece, a line headed by the entry shows the natural chain unless it says otherwise.", "UniProt P29558": "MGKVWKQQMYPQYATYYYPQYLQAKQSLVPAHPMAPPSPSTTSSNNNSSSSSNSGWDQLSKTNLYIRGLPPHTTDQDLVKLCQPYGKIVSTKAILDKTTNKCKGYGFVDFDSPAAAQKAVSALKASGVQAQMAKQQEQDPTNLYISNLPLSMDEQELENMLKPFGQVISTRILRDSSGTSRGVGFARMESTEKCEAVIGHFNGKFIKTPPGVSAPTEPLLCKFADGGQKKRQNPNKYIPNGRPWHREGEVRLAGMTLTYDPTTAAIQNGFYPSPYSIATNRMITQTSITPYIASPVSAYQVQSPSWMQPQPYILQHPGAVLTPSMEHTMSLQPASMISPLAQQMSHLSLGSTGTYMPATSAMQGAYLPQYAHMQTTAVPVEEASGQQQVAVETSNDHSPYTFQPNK", "UniProt Q9Y3P9": "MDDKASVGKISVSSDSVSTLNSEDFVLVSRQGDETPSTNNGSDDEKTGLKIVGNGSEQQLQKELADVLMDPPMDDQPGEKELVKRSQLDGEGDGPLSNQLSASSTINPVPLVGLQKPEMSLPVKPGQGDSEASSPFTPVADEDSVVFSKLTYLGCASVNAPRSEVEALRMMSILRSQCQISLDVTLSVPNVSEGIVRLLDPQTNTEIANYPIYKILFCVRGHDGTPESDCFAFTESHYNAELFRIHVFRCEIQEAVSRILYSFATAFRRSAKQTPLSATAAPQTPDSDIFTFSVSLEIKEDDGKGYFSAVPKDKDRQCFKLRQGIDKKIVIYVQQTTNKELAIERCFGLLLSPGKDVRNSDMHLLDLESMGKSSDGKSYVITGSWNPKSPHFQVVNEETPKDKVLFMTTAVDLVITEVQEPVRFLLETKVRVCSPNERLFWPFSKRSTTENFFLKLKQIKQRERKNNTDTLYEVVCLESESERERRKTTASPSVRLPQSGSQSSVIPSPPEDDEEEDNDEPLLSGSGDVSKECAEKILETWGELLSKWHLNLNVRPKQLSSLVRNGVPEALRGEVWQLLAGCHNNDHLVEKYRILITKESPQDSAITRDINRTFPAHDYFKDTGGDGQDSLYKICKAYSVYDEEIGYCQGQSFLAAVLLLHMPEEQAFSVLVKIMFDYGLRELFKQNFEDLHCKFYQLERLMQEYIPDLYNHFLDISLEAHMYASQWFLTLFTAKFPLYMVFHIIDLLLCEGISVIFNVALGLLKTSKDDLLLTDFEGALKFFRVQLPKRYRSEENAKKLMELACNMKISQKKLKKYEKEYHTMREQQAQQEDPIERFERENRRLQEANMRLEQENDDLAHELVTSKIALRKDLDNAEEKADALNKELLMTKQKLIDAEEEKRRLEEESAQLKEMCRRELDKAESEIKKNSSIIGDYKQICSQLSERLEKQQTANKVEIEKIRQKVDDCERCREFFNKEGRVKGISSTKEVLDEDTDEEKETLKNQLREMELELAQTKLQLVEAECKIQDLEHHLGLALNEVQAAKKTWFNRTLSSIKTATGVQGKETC", "UniProt Q9H6H4": "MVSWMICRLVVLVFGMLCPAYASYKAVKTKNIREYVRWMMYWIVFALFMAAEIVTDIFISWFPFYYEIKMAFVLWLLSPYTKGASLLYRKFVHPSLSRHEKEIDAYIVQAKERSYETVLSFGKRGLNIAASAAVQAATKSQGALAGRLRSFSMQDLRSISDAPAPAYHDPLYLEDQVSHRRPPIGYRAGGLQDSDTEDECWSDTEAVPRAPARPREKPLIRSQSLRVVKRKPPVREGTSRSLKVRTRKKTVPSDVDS", "UniProt P35250, whole entry": "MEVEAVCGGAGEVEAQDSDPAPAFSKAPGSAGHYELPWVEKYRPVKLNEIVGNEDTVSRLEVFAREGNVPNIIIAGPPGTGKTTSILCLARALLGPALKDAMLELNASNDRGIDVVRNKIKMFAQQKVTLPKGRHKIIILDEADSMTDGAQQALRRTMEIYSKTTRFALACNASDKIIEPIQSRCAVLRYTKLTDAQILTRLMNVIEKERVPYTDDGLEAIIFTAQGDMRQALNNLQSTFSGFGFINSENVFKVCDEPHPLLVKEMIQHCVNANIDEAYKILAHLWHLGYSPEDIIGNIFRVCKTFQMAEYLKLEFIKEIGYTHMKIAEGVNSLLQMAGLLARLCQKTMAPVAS", "UniProt P61018": "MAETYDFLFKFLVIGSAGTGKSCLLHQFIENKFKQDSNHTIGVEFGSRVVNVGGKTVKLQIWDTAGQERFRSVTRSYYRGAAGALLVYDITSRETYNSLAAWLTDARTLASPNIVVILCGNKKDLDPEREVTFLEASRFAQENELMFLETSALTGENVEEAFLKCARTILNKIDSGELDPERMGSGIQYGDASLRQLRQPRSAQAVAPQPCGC", "UniProt P46063": "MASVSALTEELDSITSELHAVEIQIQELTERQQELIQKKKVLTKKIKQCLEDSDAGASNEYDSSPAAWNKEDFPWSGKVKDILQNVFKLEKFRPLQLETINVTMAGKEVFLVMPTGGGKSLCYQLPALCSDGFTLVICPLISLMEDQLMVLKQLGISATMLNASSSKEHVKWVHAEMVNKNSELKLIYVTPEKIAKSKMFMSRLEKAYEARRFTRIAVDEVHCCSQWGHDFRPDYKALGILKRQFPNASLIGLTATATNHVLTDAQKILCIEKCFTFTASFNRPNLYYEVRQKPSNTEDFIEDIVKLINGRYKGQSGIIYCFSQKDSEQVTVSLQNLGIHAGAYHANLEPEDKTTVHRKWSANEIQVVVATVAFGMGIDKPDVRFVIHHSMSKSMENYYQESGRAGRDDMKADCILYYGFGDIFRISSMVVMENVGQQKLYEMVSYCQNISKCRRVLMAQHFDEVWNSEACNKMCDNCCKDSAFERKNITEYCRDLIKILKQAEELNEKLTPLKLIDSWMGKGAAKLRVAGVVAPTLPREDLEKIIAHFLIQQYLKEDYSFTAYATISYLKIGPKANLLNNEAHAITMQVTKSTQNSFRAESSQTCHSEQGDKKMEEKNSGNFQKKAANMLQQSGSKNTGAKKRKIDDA", "UniProt Q99708": "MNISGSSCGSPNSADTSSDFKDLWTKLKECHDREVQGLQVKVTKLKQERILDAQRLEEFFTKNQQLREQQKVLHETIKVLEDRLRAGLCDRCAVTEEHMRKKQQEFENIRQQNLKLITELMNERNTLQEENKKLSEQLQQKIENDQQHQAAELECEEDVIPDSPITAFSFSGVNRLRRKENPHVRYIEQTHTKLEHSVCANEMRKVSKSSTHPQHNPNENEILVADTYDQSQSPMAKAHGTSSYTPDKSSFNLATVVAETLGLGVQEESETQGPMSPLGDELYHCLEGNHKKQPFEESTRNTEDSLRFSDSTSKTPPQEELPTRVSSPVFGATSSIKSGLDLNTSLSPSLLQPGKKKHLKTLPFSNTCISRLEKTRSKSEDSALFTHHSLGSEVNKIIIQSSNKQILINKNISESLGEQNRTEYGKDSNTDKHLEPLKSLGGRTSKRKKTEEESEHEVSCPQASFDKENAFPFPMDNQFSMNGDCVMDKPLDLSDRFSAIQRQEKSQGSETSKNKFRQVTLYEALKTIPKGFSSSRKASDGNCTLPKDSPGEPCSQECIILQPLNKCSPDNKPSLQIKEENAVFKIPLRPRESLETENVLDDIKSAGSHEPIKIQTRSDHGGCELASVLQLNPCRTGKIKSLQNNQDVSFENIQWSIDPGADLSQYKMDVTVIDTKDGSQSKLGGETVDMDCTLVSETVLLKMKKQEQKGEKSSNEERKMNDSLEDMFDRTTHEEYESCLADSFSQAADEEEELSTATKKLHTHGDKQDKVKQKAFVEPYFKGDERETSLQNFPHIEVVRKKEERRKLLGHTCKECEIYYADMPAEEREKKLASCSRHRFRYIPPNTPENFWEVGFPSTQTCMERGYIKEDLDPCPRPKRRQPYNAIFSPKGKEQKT", "UniProt P48382": "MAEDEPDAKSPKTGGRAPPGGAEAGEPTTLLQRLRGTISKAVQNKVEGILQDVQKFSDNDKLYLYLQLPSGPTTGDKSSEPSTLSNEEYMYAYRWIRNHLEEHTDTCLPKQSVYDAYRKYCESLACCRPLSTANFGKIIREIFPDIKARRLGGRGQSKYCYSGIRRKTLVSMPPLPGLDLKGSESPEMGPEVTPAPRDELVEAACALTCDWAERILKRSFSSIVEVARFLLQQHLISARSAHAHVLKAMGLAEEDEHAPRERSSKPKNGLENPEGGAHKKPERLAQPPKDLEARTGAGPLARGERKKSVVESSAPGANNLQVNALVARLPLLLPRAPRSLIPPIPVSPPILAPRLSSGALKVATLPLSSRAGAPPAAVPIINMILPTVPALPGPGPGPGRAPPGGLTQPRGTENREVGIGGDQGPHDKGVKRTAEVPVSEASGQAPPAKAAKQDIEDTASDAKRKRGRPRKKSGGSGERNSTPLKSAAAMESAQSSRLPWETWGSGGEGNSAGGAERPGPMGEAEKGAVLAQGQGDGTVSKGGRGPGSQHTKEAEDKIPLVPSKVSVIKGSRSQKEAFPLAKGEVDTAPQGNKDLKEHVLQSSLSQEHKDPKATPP", "UniProt Q14088": "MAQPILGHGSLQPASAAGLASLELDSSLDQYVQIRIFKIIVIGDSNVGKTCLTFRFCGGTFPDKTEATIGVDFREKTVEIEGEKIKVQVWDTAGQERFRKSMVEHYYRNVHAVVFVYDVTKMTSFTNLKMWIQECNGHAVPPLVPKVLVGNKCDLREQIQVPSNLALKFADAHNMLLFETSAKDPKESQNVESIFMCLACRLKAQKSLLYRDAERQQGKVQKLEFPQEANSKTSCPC", "UniProt Q96I25": "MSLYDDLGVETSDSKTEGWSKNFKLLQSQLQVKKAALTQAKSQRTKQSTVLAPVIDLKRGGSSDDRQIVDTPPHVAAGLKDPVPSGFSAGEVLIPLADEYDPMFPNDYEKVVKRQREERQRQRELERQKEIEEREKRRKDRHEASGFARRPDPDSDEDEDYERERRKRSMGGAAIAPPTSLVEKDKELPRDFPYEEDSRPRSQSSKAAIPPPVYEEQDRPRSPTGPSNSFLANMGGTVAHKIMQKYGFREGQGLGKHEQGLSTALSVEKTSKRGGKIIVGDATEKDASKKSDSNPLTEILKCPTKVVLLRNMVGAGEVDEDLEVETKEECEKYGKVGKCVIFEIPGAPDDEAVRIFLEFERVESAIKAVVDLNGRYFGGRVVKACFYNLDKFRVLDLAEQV", "UniProt Q9NP72": "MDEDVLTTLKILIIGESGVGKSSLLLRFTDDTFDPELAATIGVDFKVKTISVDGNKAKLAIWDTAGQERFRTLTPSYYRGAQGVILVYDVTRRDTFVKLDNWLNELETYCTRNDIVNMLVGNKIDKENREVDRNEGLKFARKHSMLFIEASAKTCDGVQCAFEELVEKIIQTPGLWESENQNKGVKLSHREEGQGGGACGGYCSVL", "UniProt P06737": "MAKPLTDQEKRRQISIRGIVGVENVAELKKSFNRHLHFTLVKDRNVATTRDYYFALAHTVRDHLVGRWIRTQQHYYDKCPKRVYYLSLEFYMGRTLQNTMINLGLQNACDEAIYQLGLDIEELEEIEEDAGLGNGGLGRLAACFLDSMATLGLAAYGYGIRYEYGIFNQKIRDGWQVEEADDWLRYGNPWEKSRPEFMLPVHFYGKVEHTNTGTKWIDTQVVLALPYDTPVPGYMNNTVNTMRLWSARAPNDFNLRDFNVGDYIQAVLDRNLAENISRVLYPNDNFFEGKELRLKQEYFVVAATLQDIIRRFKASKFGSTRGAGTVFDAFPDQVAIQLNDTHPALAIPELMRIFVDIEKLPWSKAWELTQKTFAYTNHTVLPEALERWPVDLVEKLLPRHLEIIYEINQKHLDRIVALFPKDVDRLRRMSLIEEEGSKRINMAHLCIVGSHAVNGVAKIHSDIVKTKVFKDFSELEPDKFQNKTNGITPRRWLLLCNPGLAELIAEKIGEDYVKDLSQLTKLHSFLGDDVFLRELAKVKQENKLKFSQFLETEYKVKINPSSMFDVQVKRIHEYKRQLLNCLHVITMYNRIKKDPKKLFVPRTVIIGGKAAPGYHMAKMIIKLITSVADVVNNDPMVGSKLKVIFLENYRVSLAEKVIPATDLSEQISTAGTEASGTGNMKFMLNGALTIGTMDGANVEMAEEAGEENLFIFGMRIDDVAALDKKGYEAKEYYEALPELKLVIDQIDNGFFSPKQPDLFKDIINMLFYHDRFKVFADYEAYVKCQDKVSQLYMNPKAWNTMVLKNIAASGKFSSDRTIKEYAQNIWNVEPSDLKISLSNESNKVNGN", "UniProt Q9Y3T6": "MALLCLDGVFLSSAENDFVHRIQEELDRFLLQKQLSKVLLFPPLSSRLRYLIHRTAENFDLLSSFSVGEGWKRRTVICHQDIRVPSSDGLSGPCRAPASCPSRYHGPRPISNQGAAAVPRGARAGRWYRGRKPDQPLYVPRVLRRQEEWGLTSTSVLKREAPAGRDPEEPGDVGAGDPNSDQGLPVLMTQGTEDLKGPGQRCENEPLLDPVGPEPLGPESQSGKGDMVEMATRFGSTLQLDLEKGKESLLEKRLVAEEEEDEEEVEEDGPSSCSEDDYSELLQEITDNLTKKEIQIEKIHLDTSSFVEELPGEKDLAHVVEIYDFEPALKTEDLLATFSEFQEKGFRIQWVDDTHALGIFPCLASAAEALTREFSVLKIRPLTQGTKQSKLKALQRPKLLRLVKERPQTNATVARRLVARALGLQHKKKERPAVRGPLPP"},
  "source": "the supplement of paper PMC7666118",
  "note": "Some of the results follow.",
  "data": [
    {"compound": "COc1ccc(Cn2ccc3cc(C)c(C(=O)NO)cc32)cc1", "assay": "dose-dependent thermal stabilisation call (2D-TPP, DLPTP, 10% FDR) (binary (1 = stabilised)); higher = stabilised by the compound", "conditions": "system: HL-60 intact cells; concentration range 0.04-10 µM", "experimental": "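2D thermal proteome profiling in intact HL-60 cells treated with BRD-3811 (0, 0.04, 0.29, 2, 10 uM) for 90 min at 37 C, then heated 3 min at one of 12 temperatures (42-63.9 C). Soluble protein was quantified by TMT10 MS. The value is the DLPTP call of the paper: dose-dependent thermal stabilisation over all temperatures at 10% FDR (F-test of a dose-response against a flat model); one experiment, one call per tested protein.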", "values": [
      {"target": "RBMS1 (UniProt P29558)", "dose-dependent thermal stabilisation call": "inactive: 0"},
      {"target": "RGS14 (UniProt O43566)", "dose-dependent thermal stabilisation call": "inactive: 0"},
      {"target": "RBM15B (UniProt Q8NDT2)", "dose-dependent thermal stabilisation call": "inactive: 0"},
      {"target": "RAB27A (UniProt P51159)", "dose-dependent thermal stabilisation call": "inactive: 0"},
      {"target": "RABGAP1 (UniProt Q9Y3P9)", "dose-dependent thermal stabilisation call": "inactive: 0"},
      {"target": "PUF60 (UniProt Q9UHX1)", "dose-dependent thermal stabilisation call": "inactive: 0"},
      {"target": "REEP4 (UniProt Q9H6H4)", "dose-dependent thermal stabilisation call": "inactive: 0"},
      {"target": "RFC2 (UniProt P35250)", "dose-dependent thermal stabilisation call": "inactive: 0"},
      {"target": "RAF1 (UniProt P04049)", "dose-dependent thermal stabilisation call": "inactive: 0"},
      {"target": "RAB8A (UniProt P61006)", "dose-dependent thermal stabilisation call": "inactive: 0"},
      {"target": "RELB (UniProt Q01201)", "dose-dependent thermal stabilisation call": "inactive: 0"},
      {"target": "RANBP1 (UniProt P43487)", "dose-dependent thermal stabilisation call": "inactive: 0"},
      {"target": "RDBP (UniProt P18615)", "dose-dependent thermal stabilisation call": "inactive: 0"},
      {"target": "RAB4B (UniProt P61018)", "dose-dependent thermal stabilisation call": "inactive: 0"},
      {"target": "RAD18 (UniProt Q9NS91)", "dose-dependent thermal stabilisation call": "inactive: 0"},
      {"target": "RECQL (UniProt P46063)", "dose-dependent thermal stabilisation call": "inactive: 0"},
      {"target": "RBBP8 (UniProt Q99708)", "dose-dependent thermal stabilisation call": "inactive: 0"},
      {"target": "RFX5 (UniProt P48382)", "dose-dependent thermal stabilisation call": "inactive: 0"},
      {"target": "RNF126 (UniProt Q9BV68)", "dose-dependent thermal stabilisation call": "inactive: 0"},
      {"target": "RABGGTB (UniProt P53611)", "dose-dependent thermal stabilisation call": "inactive: 0"},
      {"target": "RAB33A (UniProt Q14088)", "dose-dependent thermal stabilisation call": "inactive: 0"},
      {"target": "QRICH1 (UniProt Q2TAL8)", "dose-dependent thermal stabilisation call": "inactive: 0"},
      {"target": "RBM17 (UniProt Q96I25)", "dose-dependent thermal stabilisation call": "inactive: 0"},
      {"target": "RAB18 (UniProt Q9NP72)", "dose-dependent thermal stabilisation call": "inactive: 0"},
      {"target": "PYCR1 (UniProt P32322)", "dose-dependent thermal stabilisation call": "inactive: 0"},
      {"target": "PYGL (UniProt P06737)", "dose-dependent thermal stabilisation call": "inactive: 0"},
      {"target": "R3HCC1 (UniProt Q9Y3T6)", "dose-dependent thermal stabilisation call": "inactive: 0"}
    ]}
  ]
}
